This assay concerns nude mice, HT29 intrarenal xenograft, tumor weight T/C. The assay can be described thus: NCI In Vivo Anticancer Drug Screen. Data for tumor model HT29;CX-1 Human Adenocarcinoma (MER+) (intrarenal inoculation) in NU/NU Swiss (nude) mice. As to conditions: T/C endpoint: mean tumor weight change, higher T/C = larger tumour. Summed up:
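Tumor-bearing mice received test compound or vehicle, and tumor size or survival was recorded. Values are the treated-group measurement divided by the vehicle-treated control measurement.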

Where [1] appears, read: dose: 300.0 mg/kg/injection, schedule: Q04DX004 (sc), vehicle: saline with Tween-80.

SMILES strings stand for the structures. The list is a part of this screen's results and no random one: it gathers tests that were run many times, whatever their T/C, doses with no T/C, and many T/C values between a quarter and a half above the control. Other doses and runs of a compound stand elsewhere. T/C: endpoint of the treated group in % of that of the vehicle group. Schedule codes are those of the source, read here as Q, the interval in days (D) or hours (H), X, the number of doses. Some doses were run more than once; their values stand side by side, smallest first. Some T/C values carry the count of animals alive at the toxicity check (mostly the fifth day); without a count, all were alive then. Some values lie below zero, which means that the treated tumours became smaller. Some entries give survivors of the animals treated and no T/C: the source holds a T/C of zero for them, seemingly a mark for toxic or unscored doses. Survivors were counted at the toxicity check, usually on the fifth day, unless a day is given; later deaths do not show.

As for `CCNC(=O)OCc1c(COC(=O)NCC)c(-c2ccc(Cl)c(Cl)c2)n2c1CCC2`, the survivor count by setting is: (dose: 75.0 mg/kg/injection, schedule: Q04DX004 (sc), vehicle: saline with Tween-80) 3 of 6 on day 15; (dose: 150.0 mg/kg/injection, schedule: Q04DX004 (sc), vehicle: saline with Tween-80) 1 of 6 on day 15 and 2 of 6 on day 15; under setting [1], 1 of 6 on day 15 and 3 of 6 on day 15.
Consider `CC1(C)OCC(CO)(Nc2nc(N3CC3)nc(N3CC3)n2)CO1`, for which the survivor count was 3 of 5 on day 15 (dose: 4.0 mg/kg/injection, schedule: Q04DX004 (sc), vehicle: saline); 0 of 6 on day 15 (dose: 8.0 mg/kg/injection, schedule: Q04DX004 (sc), vehicle: saline); 0 of 6 on day 15 (dose: 16.0 mg/kg/injection, schedule: Q04DX004 (sc), vehicle: saline).
For the molecule `O=[N+]([O-])c1ccc(Sc2ccncn2)c([N+](=O)[O-])c1`, where the note is “dose: 75.0 mg/kg/injection, schedule: Q04DX004 (sc), vehicle: saline with Tween-80, evaluated on day 15”, the T/C was 128 % of control.
As for `Nc1n[n+](-c2ccc(Cl)cc2)no1`, the survivor count (dose: 200.0 mg/kg/injection, schedule: Q04DX004 (sc), vehicle: water) is 0 of 6 on day 15.
Take `COc1cc2c(c(OC)c1OC)-c1c(cc3c(c1OC)OCO3)CC(C)C(C)(O)C2OC(=O)c1ccccc1` (stereo not drawn): the T/C (dose: 150.0 mg/kg/injection, schedule: Q04DX004 (sc), vehicle: saline + alcohol, evaluated on day 15) is 130 % of control; the T/C (dose: 300.0 mg/kg/injection, schedule: Q04DX004 (sc), vehicle: saline + alcohol, evaluated on day 15) is 128 % of control; the T/C (dose: 600.0 mg/kg/injection, schedule: Q04DX004 (sc), vehicle: saline + alcohol, evaluated on day 15) was 138 % of control.
Consider `COc1cc2cc(c1Cl)N(C)C(=O)CC(OC(=O)C(C)C)C1(C)OC1C(C)C1CC(O)(NC(=O)O1)C(OC)/C=C/C=C(C)C2` (stereo not drawn), for which the T/C (dose: 125.0 micrograms/kg/injection, schedule: Q04DX004 (sc), vehicle: saline + alcohol, evaluated on day 15) is 125 % of control. Under “dose: 500.0 micrograms/kg/injection, schedule: Q04DX004 (sc), vehicle: saline + alcohol”, the survivor count was 3 of 6 on day 15 and 3 of 5 on day 15.
With `C[C@H]1C[C@@H]2[C@H]([C@@H](O)C[C@@]3(C)[C@H]2CC[C@]3(O)C(=O)CO)[C@@]2(C)C=CC(=O)C=C12`, the survivor count was 1 of 6 on day 15 (dose: 400.0 mg/kg/injection, schedule: Q04DX004 (sc), vehicle: Klucel (hydroxypropylcellulose) (HPC)); 1 of 6 on day 15 (dose: 800.0 mg/kg/injection, schedule: Q04DX004 (sc), vehicle: Klucel (hydroxypropylcellulose) (HPC)); 1 of 6 on day 15 (dose: 1600.0 mg/kg/injection, schedule: Q04DX004 (sc), vehicle: Klucel (hydroxypropylcellulose) (HPC)).
Consider `COC1=C(C)C(=O)C2=C(C1=O)C1C3CC4=C(C(=O)C(OC)=C(C)C4=O)C(CNC(=O)C(C)=O)N3C(C#N)C(C2)N1C` (stereo not drawn), for which, where the note is “dose: 4.0 mg/kg/injection, schedule: Q04DX004 (sc), vehicle: Klucel (hydroxypropylcellulose) (HPC), evaluated on day 15”, the T/C is 141 % of control [4 of 6 alive on day 15]. In addition, the survivor count (dose: 8.0 mg/kg/injection, schedule: Q04DX004 (sc), vehicle: Klucel (hydroxypropylcellulose) (HPC)) was 1 of 6 on day 15.
Turning to `COC1N(C2CC(O)C(CO)O2)C(=O)NC(=O)C1(F)Br` (stereo not drawn), the survivor count (dose: 50.0 mg/kg/injection, schedule: Q01DX010 (sc), vehicle: saline) is 0 of 3 on day 11; the survivor count (dose: 100.0 mg/kg/injection, schedule: Q01DX010 (sc), vehicle: saline) is 0 of 3 on day 11; the survivor count (dose: 200.0 mg/kg/injection, schedule: Q01DX010 (sc), vehicle: saline) is listed as 0 of 3 on day 11.
For the molecule `C1CC[N-]CC1.[Cl][Pt+2][Cl].[NH-]C1CC1`, the survivor count (dose: 100.0 mg/kg/injection, schedule: Q04DX004 (sc), vehicle: water) is given as 0 of 6 on day 15.
For the molecule `Nc1nc(N)c2c(ccc3c2ccn3Cc2cccc([N+](=O)[O-])c2)n1`, under setting [1], the survivor count is 0 of 6 on day 15.
Take `Cc1c(N)nc([C@H](CC(N)=O)NC[C@H](N)C(N)=O)nc1C(=O)N[C@H](C(=O)N[C@H](C)[C@@H](O)[C@H](C)C(=O)N[C@H](C(=O)NCCc1nc(-c2nc(C(=O)NCCC[S+](C)C)cs2)cs1)[C@@H](C)O)C(OC1OC(CO)C(O)C(O)C1OC1OC(CO)C(O)C(OC(N)=O)C1O)c1cnc[nH]1` (stereo partly drawn): where the note is “dose: 12.5 mg/kg/injection, schedule: Q04DX004 (sc), vehicle: saline, evaluated on day 15”, the T/C was 126 % of control. In addition, the survivor count by setting is: (dose: 64.0 mg/kg/injection, schedule: Q04DX004 (sc), vehicle: saline) 0 of 3 on day 15; (dose: 128.0 mg/kg/injection, schedule: Q01DX010 (sc), vehicle: saline) 0 of 3 on day 11.
For the molecule `O=CC(=O)c1ccc(O)cc1`, under “dose: 1200.0 mg/kg/injection, schedule: Q04DX004 (sc), vehicle: saline”, the survivor count was 0 of 6 on day 15.
Turning to `CC1(C)OC1CS(=O)c1ccccc1` (stereo not drawn), the T/C (dose: 100.0 mg/kg/injection, schedule: Q04DX004 (sc), vehicle: saline with Tween-80, evaluated on day 15) is 130 % of control [4 of 6 alive on day 15].
With `Cc1oc2c(C)c3oc(=O)cc(C)c3cc2c1CCl`, for the setting “dose: 1200.0 mg/kg/injection, schedule: Q04DX004 (sc), vehicle: saline with Tween-80”, the survivor count is listed as 3 of 6 on day 15.
Take `O=[n+]1c2ccccc2n([O-])c2ccccc21.[Cl][Ni][Cl]`: the T/C (dose: 37.5 mg/kg/injection, schedule: Q04DX004 (sc), vehicle: saline with Tween-80, evaluated on day 15) is 133 % of control. Also, the survivor count under setting [1] was 0 of 6 on day 15.
Regarding `CCCC(=O)Oc1ccc(/C=N/NC(N)=S)nc1`, the survivor count by setting is: (dose: 400.0 mg/kg/injection, schedule: Q01DX010 (sc), vehicle: saline with Tween-80) 1 of 3 on day 11; (dose: 800.0 mg/kg/injection, schedule: Q01DX010 (sc), vehicle: saline with Tween-80) 0 of 3 on day 11.
Consider `CC(=O)NC(C=O)OCC=O` (stereo not drawn), for which the T/C (dose: 50.0 mg/kg/injection, schedule: Q04DX004 (sc), vehicle: water, evaluated on day 15) is 128 % of control and the T/C (dose: 400.0 mg/kg/injection, schedule: Q04DX004 (sc), vehicle: water, evaluated on day 15) is 141 % of control.
On to `CC1CN1C(=O)NCCCCCCNC(=O)N1CC1C` (stereo not drawn), for which the T/C (dose: 10.0 mg/kg/injection, schedule: Q04DX004 (sc), vehicle: Klucel (hydroxypropylcellulose) (HPC), evaluated on day 15) was 131 % of control. Besides, the survivor count is reported as 0 of 6 on day 15 (dose: 40.0 mg/kg/injection, schedule: Q04DX004 (sc), vehicle: Klucel (hydroxypropylcellulose) (HPC)); 0 of 6 on day 15 (dose: 60.0 mg/kg/injection, schedule: Q04DX004 (sc), vehicle: Klucel (hydroxypropylcellulose) (HPC)); 1 of 6 on day 15 (dose: 80.0 mg/kg/injection, schedule: Q04DX004 (sc), vehicle: Klucel (hydroxypropylcellulose) (HPC)).
Turning to `O=C1c2ccccc2C(=O)c2c(NCCNCCO)ccc(NCCNCCO)c21`, the T/C is, setting by setting: (dose: 4.0 mg/kg/injection, schedule: Q01DX010 (sc), vehicle: water, evaluated on day 11) 29, 40, 66, 70 % of control; (dose: 8.0 mg/kg/injection, schedule: Q01DX010 (sc), vehicle: water, evaluated on day 11) -34 [2 of 2 alive on day 11], 20 [2 of 3 alive on day 11], 59, 60 % of control; (dose: 16.0 mg/kg/injection, schedule: Q01DX010 (sc), vehicle: water, evaluated on day 11) -13, 19 [2 of 3 alive on day 11], 59 % of control. The survivor count is 0 of 3 on day 11 (dose: 16.0 mg/kg/injection, schedule: Q01DX010 (sc), vehicle: water); 0 of 3 on day 11 and 1 of 6 on day 11 (dose: 32.0 mg/kg/injection, schedule: Q01DX010 (sc), vehicle: water).
On to `OCC1(CO)COC2(CCCCC2)N1`, for which, under “dose: 300.0 mg/kg/injection, schedule: Q04DX004 (sc), vehicle: suspension in saline, evaluated on day 15”, the T/C was 131 % of control.
For the molecule `CC(Cc1ccc(O)c(O)c1)C(C)Cc1ccc(O)c(O)c1` (stereo not drawn), the T/C (dose: 1200.0 mg/kg/injection, schedule: Q04DX004 (sc), vehicle: saline + alcohol, evaluated on day 15) was 142 % of control.
With `C1OCN2CSCC12` (stereo not drawn), the survivor count (dose: 800.0 mg/kg/injection, schedule: Q04DX004 (sc), vehicle: saline with Tween-80) was 0 of 6 on day 15.
On to `COc1ccc2nc3cc(Cl)ccc3c(NCCNCCNCCNc3c4ccc(Cl)cc4nc4ccc(OC)cc34)c2c1`, for which the T/C (dose: 200.0 mg/kg/injection, schedule: Q01DX010 (sc), vehicle: saline with Tween-80, evaluated on day 11) is 132 % of control.
